About 3,700 (0.93%) of roughly 400,000 compounds were called active. The inconclusive results got no clear call from the source; some entries with a clear call stand among them for comparison. Calls follow the shape of the dose curve; as a rule, active = well fitted inhibition curve with a large enough effect; inconclusive = small, poorly fitted or top-dose-only effect, or another doubt; inactive = no such curve, though single readings can be large or run the other way. A potency beside an inconclusive call is a rough fit, not a confirmed value. A structure can be active in one record and inactive in another.
target: Vitamin D3 receptor (Homo sapiens) (UniProt P11473); test: Inhibitors of the vitamin D receptor (VDR): qHTS; conditions: VDR-SRC2-3 peptide fluorescence polarization, 2 h; max response, negative = inhibition: stronger effect = lower value
How it was run: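 Reagent solutions, kept cold and dark, are dispensed first; compounds are then pinned in at 23 nl, plates briefly spun, and incubated 2 h at ambient temperature. Inhibition of VDR–SRC2-3 peptide binding is read by fluorescence polarization.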
% is scaled to controls: 0 for no effect and ±100 for the full control effect; potency is read from the fitted curve at half-maximal effect.

By UniProt entry, the sequences of proteins in these tests, tags left out. Where a name states a change or a piece, a line headed by the entry shows the natural chain unless it says otherwise.
UniProt P11473: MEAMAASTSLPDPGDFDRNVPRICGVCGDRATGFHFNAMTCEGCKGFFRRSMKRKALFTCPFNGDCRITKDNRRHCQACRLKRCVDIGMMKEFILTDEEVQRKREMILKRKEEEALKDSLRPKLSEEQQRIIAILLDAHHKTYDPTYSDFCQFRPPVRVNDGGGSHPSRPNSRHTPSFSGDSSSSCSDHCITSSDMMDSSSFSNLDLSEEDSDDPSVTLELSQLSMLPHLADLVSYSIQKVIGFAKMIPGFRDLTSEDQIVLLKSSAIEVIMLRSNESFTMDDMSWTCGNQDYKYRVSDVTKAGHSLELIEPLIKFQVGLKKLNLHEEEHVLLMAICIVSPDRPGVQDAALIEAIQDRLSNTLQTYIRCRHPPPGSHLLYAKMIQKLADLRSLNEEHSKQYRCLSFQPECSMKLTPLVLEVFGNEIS

`CC(=O)N1CCN(c2ccc(NCc3ccc4c(c3)OCO4)cc2)CC1` was tested. Which Potency did it give?
Its Potency is inconclusive: 5.01 µM [inhibitor, partial curve, poor fit].

For `O=C(NN1C(=O)/C(=C/C=C/c2ccco2)SC1=S)c1ccccc1O`, which max response, negative = inhibition is on record?
The max response, negative = inhibition was inactive: 46.2%.

How did the Potency turn out when `O=C(O)CCCCCN1C(=O)/C(=C/c2ccncc2)SC1=S` was run?
The Potency was inconclusive: 79.4 µM [inhibitor, single point].

`COc1ccc2c(C)c(CCC(=O)NCc3ccc(Cl)cc3)c(=O)oc2c1C` was tested. Which max response, negative = inhibition did it give?
The max response, negative = inhibition was inactive: 0.996%.

With `CO/N=C(\C(=O)N[C@@H]1C(=O)N2C(C(=O)[O-])=C(C[n+]3cccc4c3CCC4)CS[C@H]12)c1csc(N)n1` as the molecule, how does the Potency read?
The Potency was active: 28.2 µM.

`C=CCCCCCCCCC(=O)Nc1ncccn1` was tested. Which Potency did it give?
Its Potency is inconclusive: 28.2 µM [inhibitor, partial curve, poor fit].

For `CCN(CC(=O)Nc1ccc(NC(C)=O)cc1)C(=O)c1ccc2c(c1)S(=O)(=O)N=C1CCCCCN12`, which Potency is on record?
The Potency was inconclusive: 89.1 µM [inhibitor, single point].

`CCOC(=O)c1ccc(N=c2sc(C(=O)OC)cc(=O)n2Cc2ccco2)cc1` was tested. Which Potency did it give?
Its Potency is inconclusive: 63.1 µM [inhibitor, partial curve, poor fit].

With `COc1ccc(-c2nc(CNC(=O)Nc3ccccc3)c(C)o2)cc1` as the molecule, how does the max response, negative = inhibition read?
The max response, negative = inhibition was inactive: 0.157%.

How did the Potency turn out when `COc1ccccc1NC(=O)Nc1ccccc1Br` was run?
The Potency was inconclusive: 25.1 µM [inhibitor, partial curve, poor fit].

With `CCN(CCNC(=O)C1CCN(Cc2nc(-c3cccc(Cl)c3)oc2C)CC1)c1ccccc1` as the molecule, how does the max response, negative = inhibition read?
The max response, negative = inhibition was inactive: -9.92%.

`CCCCCCCC/C=C\CCCCCCCC(N)=O` was tested. Which max response, negative = inhibition did it give?
The max response, negative = inhibition was inactive: 2.71% [middle of 4 runs].

For `CCSS(=O)(=O)c1cccc2cccnc12`, which Potency is on record?
The Potency was active: 15.8 µM.

With `Cc1oc(/N=C/c2cccc3ccccc23)c(C#N)c1C` as the molecule, how does the Potency read?
Its Potency is inconclusive: 39.8 µM [inhibitor, partial curve, poor fit].

Which Potency does the source give for `CC1CCCN(C(=O)C2CCN(c3ncnc4c3nc3n4CCCCC3)CC2)C1` (stereo not given) here?
Its Potency is inconclusive: 25.1 µM [inhibitor, single point].

With `CC(=O)C(Sc1nn(C)c(=S)s1)C(=O)Nc1ccccc1` (stereo not given) as the molecule, how does the Potency read?
The Potency was active: 79.4 µM.

`CC(C)(C)c1cc(=O)n(-c2ccccc2)[nH]1` was tested. Which Potency did it give?
Its Potency is active: 10 µM.

How did the max response, negative = inhibition turn out when `COc1cc(/C=N/N2CCN(c3ccccc3)CC2)cc(OC)c1OC(C)=O` was run?
The max response, negative = inhibition was inactive: -9.42%.

Which Potency does the source give for `Cc1ccc(/C=N/N=C2\SCC(=O)N2CC2CC2)cc1` here?
Its Potency is inconclusive: 79.4 µM [inhibitor, single point].

How did the Potency turn out when `COc1ccc2[nH]cc(C(=O)CN(C)CCc3ccc(OC)c(OC)c3)c2c1` was run?
Its Potency is inconclusive: 3.16 µM [inhibitor, single point].

Which Potency does the source give for `CC(=O)Nc1ccc(S(=O)(=O)Nc2nc3ccccc3nc2N2CCc3ccccc3C2)cc1` here?
Its Potency is inconclusive: 89.1 µM [inhibitor, single point].

For `O=C(C1CCCN(S(=O)(=O)c2cccc3nsnc23)C1)N1CC=C(c2ccccc2)CC1` (stereo not given), which max response, negative = inhibition is on record?
Its max response, negative = inhibition is inactive: -9.56%.

With `CC(=O)Nc1cc2c(cc1[N+](=O)[O-])-c1ccccc1C2O` (stereo not given) as the molecule, how does the Potency read?
Its Potency is inconclusive: 50.1 µM [inhibitor, partial curve, poor fit].

`COc1ccc(OC)c(CNC(=O)c2nn(C)c3c2CSc2ccccc2-3)c1` was tested. Which max response, negative = inhibition did it give?
Its max response, negative = inhibition is inactive: 11.5%.

Which Potency does the source give for `COc1ccccc1OCC(=O)NCC1CCCN(C(=O)c2ccccc2SC)C1` (stereo not given) here?
The Potency was inconclusive: 28.2 µM [inhibitor, partial curve, poor fit].

Which max response, negative = inhibition does the source give for `N#CC1(Cc2ccc([N+](=O)[O-])cc2)c2ccccc2C=CN1C(=O)c1ccccc1` (stereo not given) here?
Its max response, negative = inhibition is inactive: -8.06%.

With `Nc1cc(S(=O)(=O)Nc2cc(Cl)ccc2Cl)ccc1N1CCOCC1` as the molecule, how does the Potency read?
The Potency was active: 35.5 µM.

Which max response, negative = inhibition does the source give for `Cc1nc(Nc2ccc(Cl)cc2Cl)sc1C(=O)Nc1ccccc1` here?
The max response, negative = inhibition was inactive: -16.9%.

With `N=c1n(CCN2CCCCC2)c2ccccc2n1CC(=O)c1ccc(Cl)c(Cl)c1` as the molecule, how does the max response, negative = inhibition read?
Its max response, negative = inhibition is inactive: -5.44%.

With `CNC(=O)C1C(=S)NC(N)=C(C#N)C1c1ccccc1` (stereo not given) as the molecule, how does the Potency read?
The Potency was active: 20 µM.

How did the Potency turn out when `Cc1ccc(/C=C/C(=O)Nc2cc(S(N)(=O)=O)ccc2O)cc1` was run?
Its Potency is inconclusive: 79.4 µM [inhibitor, partial curve].

With `COC(=O)c1ccc(Oc2c(Cl)cccc2[N+](=O)[O-])cc1` as the molecule, how does the Potency read?
The Potency was inconclusive: 56.2 µM [inhibitor, partial curve, poor fit].

How did the Potency turn out when `CCCN1C(=O)/C(=C/c2ccncc2)SC1=S` was run?
Its Potency is inconclusive: 56.2 µM [inhibitor, partial curve, poor fit].

`O=C(O)[C@@H](S)[C@H](S)C(=O)O` was tested. Which Potency did it give?
The Potency was active: 17.8 µM.

For `COc1cc(-c2csc(NC3CCCCC3)n2)cc(OC)c1OC`, which max response, negative = inhibition is on record?
Its max response, negative = inhibition is inactive: 5.31%.

For `CCCCOc1ccc(C(=O)NCCOc2cccc(OC)c2)cc1`, which Potency is on record?
The Potency was inconclusive: 89.1 µM [inhibitor, single point].

Which Potency does the source give for `CC1(C)CC(=O)C(C(c2cccc([N+](=O)[O-])c2)C2C(=O)CC(C)(C)CC2=O)C(=O)C1` here?
Its Potency is inconclusive: 100 µM [inhibitor, single point].

Which max response, negative = inhibition does the source give for `COc1ccc(NC(C)C(=O)N/N=C/c2c(O)ccc3ccccc23)cc1` (stereo not given) here?
Its max response, negative = inhibition is inactive: -8.94%.

For `Cc1ccc(Sc2ncccc2C(=O)O)c(C)c1`, which Potency is on record?
The Potency was inconclusive: 25.1 µM [inhibitor, single point].

How did the Potency turn out when `O=C(N/N=C/c1ccccc1O)C1(O)c2ccccc2-c2ccccc21` was run?
Its Potency is inconclusive: 89.1 µM [inhibitor, single point].

How did the Potency turn out when `Cc1nc(Cl)cc(N/N=C/c2ccccc2)n1` was run?
Its Potency is inconclusive: 8.91 µM [inhibitor, full curve, poor fit].

Which Potency does the source give for `CCC(=O)N(C)CCc1cc2c(c(OC)c1/C=N/NC(=O)c1ccc(Br)cc1)OCO2` here?
Its Potency is inconclusive: 56.2 µM [inhibitor, single point].

Which Potency does the source give for `O=c1ccc2[n+]([O-])c3ccc(O)cc3oc-2c1` here?
Its Potency is active: 11.2 µM.

With `CC1(CC(=O)N/N=C/c2cc([N+](=O)[O-])c(O)cc2O)OCCO1` as the molecule, how does the Potency read?
The Potency was inconclusive: 28.2 µM [inhibitor, partial curve, poor fit].

How did the max response, negative = inhibition turn out when `CCc1ccc(-c2nn(CC(=O)Nc3ccccc3)c3c2cnc2ccc(F)cc23)cc1` was run?
Its max response, negative = inhibition is inactive: -4.14%.

For `CC(/C=N/NC(=O)c1nnn(-c2nonc2N)c1CN(C)C)=C\c1ccco1`, which max response, negative = inhibition is on record?
The max response, negative = inhibition was inactive: 5.8%.

With `CCOc1cc(/C=C\[N+](=O)[O-])ccc1OCC(=O)N1CCOCC1` as the molecule, how does the Potency read?
The Potency was active: 28.2 µM.

With `CCOC(=O)c1ccc(NS(=O)(=O)c2ccc3oc(=O)[nH]c3c2)cc1` as the molecule, how does the Potency read?
Its Potency is inconclusive: 12.6 µM [inhibitor, partial curve, poor fit].

With `COc1ccc(N)c2c1C(=O)c1ccccc1C2=O` as the molecule, how does the Potency read?
Its Potency is inconclusive: 56.2 µM [inhibitor, partial curve, poor fit].

How did the max response, negative = inhibition turn out when `Cc1cc(C)nc(NCCCc2ccccc2)n1` was run?
Its max response, negative = inhibition is inactive: -14.1%.

`NC(=O)c1ccc(N=C2C(=O)Nc3ccc([N+](=O)[O-])cc32)cc1` was tested. Which Potency did it give?
The Potency was inconclusive: 79.4 µM [inhibitor, partial curve, poor fit].

Which Potency does the source give for `Cc1ncc(CO)c(/C=N/NC(=S)Nc2ccc(C(C)C)cc2)c1O` here?
Its Potency is inconclusive: 22.4 µM [inhibitor, single point].

Which Potency does the source give for `O=C(/C=C/c1ccc(O)cc1)c1ccc(O)cc1O` here?
Its Potency is active: 79.4 µM.

With `CCOc1ccc(NC(=O)CCS(=O)(=O)c2ccc3c(c2)CCCN3C(C)=O)cc1` as the molecule, how does the max response, negative = inhibition read?
Its max response, negative = inhibition is inactive: -11.1%.

How did the Potency turn out when `COc1ccc(-c2ccccc2[C@H]2[C@@H]3C=CC[C@@H](C)[C@@H]3C(=O)N2Cc2ccccc2)cc1` was run?
The Potency was inconclusive: 50.1 µM [inhibitor, partial curve, poor fit].

How did the Potency turn out when `CCCCCCC(=O)N(O)C1CC(=O)N(c2ccc(F)cc2)C1=O` (stereo not given) was run?
Its Potency is active: 39.8 µM.

Which max response, negative = inhibition does the source give for `Cc1cc(C)cc(-n2ncc3c2CCCC3NC(=O)CN2CCCCC2=O)c1` (stereo not given) here?
Its max response, negative = inhibition is inactive: 10.5%.

How did the max response, negative = inhibition turn out when `Cc1ccc2c(c1)cc(CN(Cc1ccco1)C(=O)COc1ccccc1)c1nnnn12` was run?
The max response, negative = inhibition was inactive: -9.19%.

With `Cc1ccc(Cn2c([N+](=O)[O-])cnc2C)cc1` as the molecule, how does the Potency read?
Its Potency is inconclusive: 79.4 µM [inhibitor, partial curve, poor fit].

Which Potency does the source give for `Cc1cc(S(=O)(=O)N2CCCC(N(C)CCc3ccccn3)C2)c(C)cc1Cl` (stereo not given) here?
Its Potency is inconclusive: 63.1 µM [inhibitor, partial curve, poor fit].

How did the Potency turn out when `NC(=O)C1(C(N)=O)OC1c1ccc(Cl)cc1Cl` (stereo not given) was run?
The Potency was active: 14.1 µM.

Which Potency does the source give for `Cc1noc(C)c1-c1ccc2ncnc(N3CCOCC3)c2c1` here?
Its Potency is active: 50.1 µM.

`O=[N+]([O-])c1ccc(Cl)c2c1C1C=CCC1C(c1ccccn1)N2` (stereo not given) was tested. Which Potency did it give?
Its Potency is inconclusive: 70.8 µM [inhibitor, single point].

`Cc1ccc(C)c(NC(=O)CN2C(=O)CCc3ccccc32)c1` was tested. Which max response, negative = inhibition did it give?
The max response, negative = inhibition was inactive: 9.26%.

`COc1ccc(C(=O)OCC(=O)Nc2c(C)n(C)n(-c3ccccc3)c2=O)cc1OC` was tested. Which max response, negative = inhibition did it give?
The max response, negative = inhibition was inactive: 11%.

With `CC(=O)c1ccc(OC(=O)COc2ccccc2Cl)cc1` as the molecule, how does the Potency read?
Its Potency is inconclusive: 63.1 µM [inhibitor, partial curve, poor fit].

Which Potency does the source give for `COc1ccc(N2C(=O)C(Cl)=C(Nc3c(C)n(C)n(-c4ccccc4)c3=O)C2=O)cc1` here?
The Potency was inconclusive: 79.4 µM [inhibitor, single point].

`C=CCn1c(Cc2cccs2)nnc1SCC(=O)c1cccc(Br)c1` was tested. Which Potency did it give?
The Potency was inconclusive: 79.4 µM [inhibitor, single point].

For `CCN1CCN(C(=S)c2ccc(Cl)c(Cl)c2)CC1`, which Potency is on record?
The Potency was inconclusive: 89.1 µM [inhibitor, partial curve, poor fit].

How did the Potency turn out when `COc1cc(C(=O)Oc2c(Sc3ccccc3)c(C)nn2-c2ccccc2)cc(OC)c1OC` was run?
The Potency was inconclusive: 79.4 µM [inhibitor, single point].
